The inconclusive results got no clear call from the source; some entries with a clear call stand among them for comparison. A call without a number means that no potency is given here. Potencies beside an inconclusive call are fits to weak or partial responses and may not hold up. Active and inactive are the calls of the source. Calls follow the shape of the dose curve; as a rule, active = well fitted curve in the direction sought with a large enough effect; inconclusive = small, poorly fitted or top-dose-only effect, or effect the other way; inactive = flat fitted curve, though single readings scatter.
Assay: Total Fluorescence Confirmation Counterscreen for Inhibitors of the Interaction of Thyroid Hormone Receptor and Steroid Receptor Coregulator 2, Fluorescein Fluoroprobe
From the text: NIH Molecular Libraries Probe Production Network [MLPCN] NIH Chemical Genomics Center [NCGC] MLPCN Grant: DK058080 Assay Provider: R. Kip Guy, St. Jude Children's Research Hospital NCGC Assay Overview: Thyroid receptor (TR) regulates many homeostatic processes including basal metabolism, cardiovascular function, body weight, and lipid trafficking. TR modulators are potential therapeutics for obesity and hyperlipidemias but current thyroid analogs have undesirable side effects, particularly cardiac stimulation. To identify inhibitors that specifically prevent the interaction of TR with the steroid receptor coregulator 2 (SRC2), a fluorescence polarization assay was screened (Arnold et al., 2006). […] Total fluorescence (555 nm excitation and 632 nm emission) was measured to identify potential fluorescent and light absorbing compounds. Such compounds may be artifacts that interfere with the fluorescence polarization assay. […]
NCGC Assay Protocol Summary: For screening, 5 uL/well 0.6 uM TRbeta and 20 nM SRC2 Fluorescein in protein buffer (20mM Tris hydrochloride, 100mM NaCl, 10% glycerol, 1mM EDTA, 0.01% NP-40, 1mM DTT, 1uM T3 and 5% DMSO) was dispensed into black solid 1536-well plates (Grenier) using a solenoid-based dispenser. […] The plates were read by an Envision (Perkin Elmer) to detect fluorescence polarization of SRC2 Fluorescein (480 nm excitation and 535 nm emission). […]

Row | SMILES | Potency
1 | CCCCCn1c(N)c(C(=O)NCc2cccs2)c2nc3ccccc3nc21 | inconclusive: 11.2 nM [fluorescent, full curve]
2 | O=C(O)CC1OCC=C2CN3CCC45C6=CC(=O)C(=O)C([N+](=O)[O-])=C6NC4C1C2CC35 (configuration not stated) | inactive
